Assay: Relative dissolved potency (RDP): androgenic potency relative to testosterone times solubility relative to testosterone
Conditions: relative to testosterone = 1

Structure (SMILES)	RDP in arachis oil	RDP in oleic acid
CCCCCCCCCCC(=O)O[C@H]1CC[C@H]2[C@H]3[C@H](CC[C@]12C)[C@H]1CCC(=O)C=C1C[C@H]3C [MENT undecanoate, (7α,17β)-7-methyl-17-[(1-oxoundecyl)oxy]estr-4-en-3-one]	20.000	≧200
C[C@]12CC[C@H]3[C@@H](CCC4=CC(=O)CC[C@@]43C)[C@@H]1CC[C@@H]2O [testosterone]	1	1
CCCCCCCCCCC(=O)O[C@H]1CC[C@H]2[C@@H]3CCC4=CC(=O)CC[C@]4(C)[C@H]3CC[C@]12C [testosterone undecanoate, (17β)-17-[(1-Oxoundecyl)oxy]androst-4-en-3-one]	450	8–10
C[C@@H]1CC2=CC(=O)CC[C@@H]2[C@H]2CC[C@]3(C)[C@@H](O)CC[C@H]3[C@@H]21 [MENT, (7α,17β)-17-hydroxy-7-methylestr-4-en-3-one]	10	6

— patent US6989378B2, “Testosterone derivative” (Akzo Nobel N.V., priority 1998, dated 2006)
